Assay results as given in the supplement of paper PMC6411743.
± gives the standard deviation of the averaged measurements. Some of the results follow.

Chains of the proteins cited; added tags and fusions are not shown. Lines headed by an entry give the natural chain unless they say otherwise; changes in a name come on top.
UniProt O00567: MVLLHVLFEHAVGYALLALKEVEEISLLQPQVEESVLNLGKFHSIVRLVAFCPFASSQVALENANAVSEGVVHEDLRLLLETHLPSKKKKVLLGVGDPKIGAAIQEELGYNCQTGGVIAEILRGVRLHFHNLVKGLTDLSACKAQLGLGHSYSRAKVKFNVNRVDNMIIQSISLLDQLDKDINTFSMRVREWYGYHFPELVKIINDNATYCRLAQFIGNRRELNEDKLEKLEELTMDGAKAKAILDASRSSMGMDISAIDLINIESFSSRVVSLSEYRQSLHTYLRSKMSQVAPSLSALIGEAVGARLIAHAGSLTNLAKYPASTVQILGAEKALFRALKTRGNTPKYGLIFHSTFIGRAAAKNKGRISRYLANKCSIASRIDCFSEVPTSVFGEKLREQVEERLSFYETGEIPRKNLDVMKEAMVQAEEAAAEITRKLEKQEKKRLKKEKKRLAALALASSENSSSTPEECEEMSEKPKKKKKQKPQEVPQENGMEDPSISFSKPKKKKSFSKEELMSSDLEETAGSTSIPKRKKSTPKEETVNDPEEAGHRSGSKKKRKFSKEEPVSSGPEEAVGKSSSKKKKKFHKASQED
UniProt O15116: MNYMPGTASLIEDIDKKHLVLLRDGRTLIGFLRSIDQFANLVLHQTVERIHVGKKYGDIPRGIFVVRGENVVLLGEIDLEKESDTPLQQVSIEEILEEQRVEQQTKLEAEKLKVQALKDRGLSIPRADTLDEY
UniProt O43318: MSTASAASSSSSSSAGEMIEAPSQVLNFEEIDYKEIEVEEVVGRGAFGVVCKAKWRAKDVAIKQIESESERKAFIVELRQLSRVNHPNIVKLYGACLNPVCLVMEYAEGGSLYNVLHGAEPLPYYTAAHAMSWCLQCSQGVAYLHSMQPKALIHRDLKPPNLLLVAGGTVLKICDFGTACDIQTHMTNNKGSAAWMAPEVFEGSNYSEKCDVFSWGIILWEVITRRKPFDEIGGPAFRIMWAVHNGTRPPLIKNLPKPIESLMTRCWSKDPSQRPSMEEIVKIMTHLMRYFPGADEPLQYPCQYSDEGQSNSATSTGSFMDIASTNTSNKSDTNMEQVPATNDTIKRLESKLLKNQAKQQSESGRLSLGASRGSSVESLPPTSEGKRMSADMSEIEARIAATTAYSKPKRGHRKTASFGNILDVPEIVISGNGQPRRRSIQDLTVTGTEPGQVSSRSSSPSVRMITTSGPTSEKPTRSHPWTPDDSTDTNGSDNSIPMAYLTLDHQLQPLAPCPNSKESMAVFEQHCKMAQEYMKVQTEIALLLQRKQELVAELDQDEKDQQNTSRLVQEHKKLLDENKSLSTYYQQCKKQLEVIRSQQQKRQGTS
UniProt O00151: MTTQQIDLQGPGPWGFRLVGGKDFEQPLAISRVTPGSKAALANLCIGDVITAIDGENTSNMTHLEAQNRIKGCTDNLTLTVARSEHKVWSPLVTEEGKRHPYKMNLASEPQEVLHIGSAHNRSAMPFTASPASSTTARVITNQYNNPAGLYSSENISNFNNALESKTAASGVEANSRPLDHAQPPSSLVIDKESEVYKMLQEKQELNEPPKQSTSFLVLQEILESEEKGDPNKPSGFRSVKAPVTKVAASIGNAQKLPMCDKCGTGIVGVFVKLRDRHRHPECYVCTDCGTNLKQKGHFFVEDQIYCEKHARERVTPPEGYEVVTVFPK
UniProt O60888: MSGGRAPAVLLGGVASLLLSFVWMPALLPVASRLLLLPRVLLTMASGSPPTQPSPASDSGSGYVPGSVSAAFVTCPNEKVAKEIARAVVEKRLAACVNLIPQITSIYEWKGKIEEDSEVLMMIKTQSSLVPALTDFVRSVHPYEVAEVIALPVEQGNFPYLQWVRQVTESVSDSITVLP
UniProt O00399, whole entry: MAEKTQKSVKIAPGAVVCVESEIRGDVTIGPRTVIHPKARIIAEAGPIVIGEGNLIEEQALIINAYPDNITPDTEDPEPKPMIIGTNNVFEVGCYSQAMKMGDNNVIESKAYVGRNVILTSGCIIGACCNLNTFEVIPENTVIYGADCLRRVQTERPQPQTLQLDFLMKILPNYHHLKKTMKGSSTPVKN
UniProt O14949: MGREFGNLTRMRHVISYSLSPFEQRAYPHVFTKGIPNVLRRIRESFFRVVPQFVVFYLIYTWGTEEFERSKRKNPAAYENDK
UniProt O14617: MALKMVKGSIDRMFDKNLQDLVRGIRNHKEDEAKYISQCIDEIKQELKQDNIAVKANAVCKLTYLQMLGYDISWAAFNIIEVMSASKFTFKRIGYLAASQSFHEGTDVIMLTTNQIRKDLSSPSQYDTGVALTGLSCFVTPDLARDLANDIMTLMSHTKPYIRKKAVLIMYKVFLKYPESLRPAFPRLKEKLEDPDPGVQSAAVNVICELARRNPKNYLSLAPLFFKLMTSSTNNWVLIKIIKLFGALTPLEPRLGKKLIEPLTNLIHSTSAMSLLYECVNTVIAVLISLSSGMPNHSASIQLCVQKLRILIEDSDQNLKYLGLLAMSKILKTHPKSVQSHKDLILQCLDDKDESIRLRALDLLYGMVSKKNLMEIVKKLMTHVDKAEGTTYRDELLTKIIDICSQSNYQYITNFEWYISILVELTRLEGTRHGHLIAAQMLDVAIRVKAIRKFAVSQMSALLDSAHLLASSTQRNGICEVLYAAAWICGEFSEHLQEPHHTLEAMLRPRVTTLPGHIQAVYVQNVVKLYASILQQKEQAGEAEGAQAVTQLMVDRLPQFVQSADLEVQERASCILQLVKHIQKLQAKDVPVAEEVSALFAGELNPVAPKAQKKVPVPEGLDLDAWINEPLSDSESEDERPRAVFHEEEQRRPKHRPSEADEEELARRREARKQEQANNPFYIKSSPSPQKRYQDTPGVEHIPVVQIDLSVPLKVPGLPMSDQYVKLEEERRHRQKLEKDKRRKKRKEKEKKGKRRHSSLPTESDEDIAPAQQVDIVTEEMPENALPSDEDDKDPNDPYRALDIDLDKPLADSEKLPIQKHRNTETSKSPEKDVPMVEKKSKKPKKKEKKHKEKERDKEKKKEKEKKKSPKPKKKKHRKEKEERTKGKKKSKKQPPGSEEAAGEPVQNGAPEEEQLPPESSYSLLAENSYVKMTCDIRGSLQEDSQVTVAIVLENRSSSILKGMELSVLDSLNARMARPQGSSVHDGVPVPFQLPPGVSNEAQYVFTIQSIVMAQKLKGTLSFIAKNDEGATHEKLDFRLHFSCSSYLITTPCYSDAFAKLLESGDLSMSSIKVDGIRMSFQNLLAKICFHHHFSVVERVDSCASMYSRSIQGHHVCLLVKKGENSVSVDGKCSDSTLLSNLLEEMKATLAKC
UniProt O15117, whole entry: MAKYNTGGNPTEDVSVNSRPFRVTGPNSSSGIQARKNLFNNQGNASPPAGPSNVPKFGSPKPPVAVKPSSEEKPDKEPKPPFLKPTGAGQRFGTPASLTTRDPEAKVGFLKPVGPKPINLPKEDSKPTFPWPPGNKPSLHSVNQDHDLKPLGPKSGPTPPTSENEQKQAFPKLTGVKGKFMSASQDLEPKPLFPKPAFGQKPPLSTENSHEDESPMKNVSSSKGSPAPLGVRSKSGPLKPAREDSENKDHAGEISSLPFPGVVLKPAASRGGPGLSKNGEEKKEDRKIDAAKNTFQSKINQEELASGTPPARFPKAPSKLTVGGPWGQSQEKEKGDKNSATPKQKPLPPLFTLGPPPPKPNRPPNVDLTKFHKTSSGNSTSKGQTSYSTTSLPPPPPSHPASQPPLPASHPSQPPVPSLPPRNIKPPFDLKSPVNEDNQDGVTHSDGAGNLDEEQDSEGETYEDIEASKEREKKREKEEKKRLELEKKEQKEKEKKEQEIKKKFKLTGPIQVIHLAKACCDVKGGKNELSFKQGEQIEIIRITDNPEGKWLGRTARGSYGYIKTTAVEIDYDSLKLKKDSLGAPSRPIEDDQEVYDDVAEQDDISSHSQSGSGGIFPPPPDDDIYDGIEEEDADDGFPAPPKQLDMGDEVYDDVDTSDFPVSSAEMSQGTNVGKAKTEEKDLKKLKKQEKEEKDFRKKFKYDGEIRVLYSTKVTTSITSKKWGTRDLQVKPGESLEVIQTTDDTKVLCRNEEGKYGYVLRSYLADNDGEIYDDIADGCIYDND
UniProt O14933: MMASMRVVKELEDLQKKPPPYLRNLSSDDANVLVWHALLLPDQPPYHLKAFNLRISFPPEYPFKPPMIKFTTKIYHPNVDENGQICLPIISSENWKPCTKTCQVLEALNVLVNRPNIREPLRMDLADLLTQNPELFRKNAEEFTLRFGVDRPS
UniProt O43815: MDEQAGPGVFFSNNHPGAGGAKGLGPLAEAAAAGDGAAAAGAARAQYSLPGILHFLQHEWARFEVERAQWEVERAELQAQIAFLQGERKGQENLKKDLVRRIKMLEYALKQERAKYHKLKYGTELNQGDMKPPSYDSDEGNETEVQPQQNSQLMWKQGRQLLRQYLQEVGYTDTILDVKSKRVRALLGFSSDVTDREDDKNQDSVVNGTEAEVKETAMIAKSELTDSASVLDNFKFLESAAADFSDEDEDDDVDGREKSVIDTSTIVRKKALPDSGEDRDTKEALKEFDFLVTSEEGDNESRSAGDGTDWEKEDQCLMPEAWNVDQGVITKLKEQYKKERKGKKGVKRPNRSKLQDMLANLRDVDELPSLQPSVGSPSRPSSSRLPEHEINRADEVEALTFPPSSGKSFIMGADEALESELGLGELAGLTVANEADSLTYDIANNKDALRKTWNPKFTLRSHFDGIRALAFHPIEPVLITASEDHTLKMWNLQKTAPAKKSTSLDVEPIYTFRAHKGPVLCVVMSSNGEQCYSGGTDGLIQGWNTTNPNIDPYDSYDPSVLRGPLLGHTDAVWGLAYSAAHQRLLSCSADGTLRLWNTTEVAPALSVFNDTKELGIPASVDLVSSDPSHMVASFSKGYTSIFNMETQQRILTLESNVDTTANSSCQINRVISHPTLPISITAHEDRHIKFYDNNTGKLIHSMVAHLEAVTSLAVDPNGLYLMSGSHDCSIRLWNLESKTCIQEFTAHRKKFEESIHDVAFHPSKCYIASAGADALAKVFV
UniProt P04350, whole entry: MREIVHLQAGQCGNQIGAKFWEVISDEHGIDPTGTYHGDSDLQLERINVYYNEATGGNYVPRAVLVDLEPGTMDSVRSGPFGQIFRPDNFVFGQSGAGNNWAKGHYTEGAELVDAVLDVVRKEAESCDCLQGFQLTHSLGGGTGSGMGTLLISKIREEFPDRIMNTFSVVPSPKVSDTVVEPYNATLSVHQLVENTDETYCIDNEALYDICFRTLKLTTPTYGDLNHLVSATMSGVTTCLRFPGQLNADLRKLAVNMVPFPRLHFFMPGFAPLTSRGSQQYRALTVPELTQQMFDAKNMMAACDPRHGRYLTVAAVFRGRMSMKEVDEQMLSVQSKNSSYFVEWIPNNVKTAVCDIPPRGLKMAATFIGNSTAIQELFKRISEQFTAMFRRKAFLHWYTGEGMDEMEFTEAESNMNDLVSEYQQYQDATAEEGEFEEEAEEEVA

Compound: Nc1nc2c(ncn2[C@@H]2O[C@H](COP(=O)(O)OP(=O)(O)OP(=O)(O)O)[C@@H](O)[C@H]2O)c(=O)[nH]1 [guanosine triphosphate]
Test: NP40-soluble protein abundance relative to vehicle (solubility fold change) (ratio); higher = more soluble protein in presence of GTP
Method in brief: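 Each value is a fold change relative to the detergent-processed vehicle, calculated per replicate from vsn-normalised intensities. Jurkat crude lysate received eight concentrations (0.1 to 10 mM) for 10 min at room temperature and 3 min at 37 °C, then was solubilised in 0.8% NP40 with benzonase (60 min, 4 °C). The ultracentrifuged supernatant was TMT-labelled and run by LC-MS/MS in three independent experiments.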

Target	NP40-soluble protein abundance (concentration: 0.1mM)	NP40-soluble protein abundance (concentration: 0.5mM)	NP40-soluble protein abundance (concentration: 1mM)	NP40-soluble protein abundance (concentration: 2mM)	NP40-soluble protein abundance (concentration: 4mM)	NP40-soluble protein abundance (concentration: 6mM)	NP40-soluble protein abundance (concentration: 8mM)	NP40-soluble protein abundance (concentration: 10mM)
DKC1 (UniProt O60832)	1.08 ± 0.11	1.01 ± 0.069	1.11 ± 0.11	1.15 ± 0.078	1.22 ± 0.09	1.36 ± 0.13	1.48 ± 0.18	1.65 ± 0.21
UniProt O00567	1.05 ± 0.035	1.03 ± 0.046	1.1 ± 0.087	1.23 ± 0.075	1.55 ± 0.12	1.75 ± 0.12	2.06 ± 0.14	2.48 ± 0.13
SYNJ2 (UniProt O15056)	1.06 ± 0.11	1.02 ± 0.061	1.03 ± 0.047	1.02 ± 0.068	1.03 ± 0.043	0.993 ± 0.035	0.986 ± 0.088	0.931 ± 0.041
KPNA6 (UniProt O60684)	1.01 ± 0.04	1.02 ± 0.019	1.01 ± 0.019	1.01 ± 0.023	0.996 ± 0.021	0.984 ± 0.029	0.998 ± 0.051	1.01 ± 0.044
TOR1B (UniProt O14657)	1.02 ± 0.036	0.983 ± 0.12	0.911 ± 0.064	1.04 ± 0.024	0.957 ± 0.0046	0.996 ± 0.13	0.8772 ± 0.0067	0.895 ± 0.023
CASC3 (UniProt O15234)	0.983 ± 0.01	0.981 ± 0.029	1.05 ± 0.051	1 ± 0.076	0.971 ± 0.056	0.987 ± 0.064	1.02 ± 0.047	0.963 ± 0.071
WASL (UniProt O00401)	0.927 ± 0.14	0.981 ± 0.15	0.943 ± 0.14	0.981 ± 0.17	0.921 ± 0.17	0.976 ± 0.15	0.906 ± 0.16	1.05 ± 0.16
UniProt O60828 and related entries	0.966 ± 0.1	0.993 ± 0.11	1.06 ± 0.11	1.02 ± 0.15	1.03 ± 0.13	1.1 ± 0.099	1.12 ± 0.057	1.16 ± 0.1
LSM1 (UniProt O15116)	0.952 ± 0.033	0.908 ± 0.075	1.01 ± 0.017	1.05 ± 0.044	1.03 ± 0.055	1.01 ± 0.09	0.946 ± 0.096	1.09 ± 0.063
L0R819 and related entries (UniProt Q9NWL6)	1.06 ± 0.055	1.1 ± 0.022	1.09 ± 0.052	1.04 ± 0.18	1.16 ± 0.16	1.07 ± 0.082	1.261 ± 0.0045	1.2 ± 0.043
UniProt O14787-2	1.04 ± 0.09	0.98 ± 0.093	0.992 ± 0.099	0.981 ± 0.11	0.997 ± 0.12	0.936 ± 0.1	0.962 ± 0.11	0.979 ± 0.07
UniProt O14776 and related entries	0.97 ± 0.042	0.962 ± 0.056	0.979 ± 0.047	0.953 ± 0.083	0.989 ± 0.079	1.01 ± 0.084	1.05 ± 0.05	1.04 ± 0.071
UniProt O43318 and related entries	1.07 ± 0.14	1.02 ± 0.092	0.97 ± 0.057	0.988 ± 0.1	0.977 ± 0.052	0.971 ± 0.076	1.04 ± 0.05	0.968 ± 0.064
PDLIM1 (UniProt O00151)	0.942 ± 0.043	0.918 ± 0.057	0.948 ± 0.037	0.887 ± 0.073	0.905 ± 0.067	0.898 ± 0.092	0.93 ± 0.063	0.884 ± 0.061
M0R0F0 and related entries (UniProt P46782)	0.939 ± 0.058	0.97 ± 0.06	1.05 ± 0.14	1.01 ± 0.14	0.921 ± 0.2	0.895 ± 0.17	0.797 ± 0.13	0.883 ± 0.21
UniProt O60888 and related entries	0.888 ± 0.056	0.819 ± 0.043	0.949 ± 0.027	0.958 ± 0.079	0.945 ± 0.057	0.9 ± 0.031	0.855 ± 0.1	0.941 ± 0.029
UniProt O14965 and related entries	1.03 ± 0.041	1.05 ± 0.063	0.997 ± 0.094	0.998 ± 0.099	1.04 ± 0.073	1 ± 0.098	1.08 ± 0.083	1.08 ± 0.053
CLIC1 (UniProt O00299)	0.871 ± 0.12	0.885 ± 0.096	0.867 ± 0.12	0.846 ± 0.1	0.847 ± 0.12	0.82 ± 0.096	0.794 ± 0.12	0.832 ± 0.12
DCTN6 (UniProt O00399)	1.04 ± 0.068	1.1 ± 0.068	1.12 ± 0.14	1.11 ± 0.084	1.11 ± 0.11	1.1 ± 0.14	1.16 ± 0.18	1.07 ± 0.17
UniProt O43865	0.969 ± 0.025	0.99 ± 0.044	0.959 ± 0.057	0.944 ± 0.025	0.914 ± 0.021	0.955 ± 0.029	0.973 ± 0.056	0.98 ± 0.047
UQCRQ (UniProt O14949)	0.965 ± 0.068	0.883 ± 0.034	1.06 ± 0.084	1.04 ± 0.094	1.07 ± 0.085	1.01 ± 0.076	0.911 ± 0.05	1.04 ± 0.14
UniProt O14617 and related entries	1.03 ± 0.04	1.02 ± 0.053	0.993 ± 0.041	0.986 ± 0.046	0.975 ± 0.039	0.993 ± 0.035	1.03 ± 0.037	0.9725 ± 0.0091
UniProt O15117-2|O15117-3|O15117	0.931 ± 0.05	0.951 ± 0.063	0.941 ± 0.077	0.898 ± 0.11	0.858 ± 0.11	0.896 ± 0.11	0.91 ± 0.056	0.912 ± 0.083
UBE2L6 (UniProt O14933)	0.877 ± 0.06	0.875 ± 0.048	0.924 ± 0.03	0.956 ± 0.047	0.862 ± 0.078	0.912 ± 0.097	0.835 ± 0.11	0.953 ± 0.054
M0R2Z9 and related entries (UniProt Q8IX01)	1.01 ± 0.021	1.05 ± 0.03	1.12 ± 0.073	1.16 ± 0.074	1.21 ± 0.13	1.18 ± 0.098	1.25 ± 0.12	1.25 ± 0.13
M0R117 and related entries (UniProt Q02543)	1.06 ± 0.1	1.02 ± 0.053	1 ± 0.19	1.02 ± 0.2	0.938 ± 0.21	0.92 ± 0.2	0.885 ± 0.27	0.956 ± 0.25
STRN (UniProt O43815)	1 ± 0.014	1.05 ± 0.009	1.08 ± 0.065	1.12 ± 0.016	1.15 ± 0.062	1.14 ± 0.1	1.18 ± 0.09	1.17 ± 0.12
M0QYM7 and related entries (UniProt P04350)	0.947 ± 0.081	0.966 ± 0.088	0.966 ± 0.082	0.976 ± 0.077	0.938 ± 0.092	0.927 ± 0.074	0.911 ± 0.088	0.941 ± 0.079
SLC16A7 (UniProt O60669)	1.09 ± 0.034	0.98 ± 0.24	1.143 ± 0.0046	1.06 ± 0.15	1.1 ± 0.079	0.966 ± 0.15	1.12 ± 0.089	1.05 ± 0.16
M0QYH2 and related entries (UniProt Q96T60)	1.02 ± 0.03	1.08 ± 0.05	1.1 ± 0.034	1.13 ± 0.08	1.18 ± 0.056	1.23 ± 0.06	1.25 ± 0.1	1.26 ± 0.047

Not a retest: an excerpt of the list.
Target	NP40-soluble protein abundance (concentration: 0.1mM)	NP40-soluble protein abundance (concentration: 0.5mM)	NP40-soluble protein abundance (concentration: 1mM)	NP40-soluble protein abundance (concentration: 2mM)	NP40-soluble protein abundance (concentration: 4mM)	NP40-soluble protein abundance (concentration: 6mM)	NP40-soluble protein abundance (concentration: 8mM)	NP40-soluble protein abundance (concentration: 10mM)
UniProt O00567	1.05 ± 0.035	1.03 ± 0.046	1.1 ± 0.087	1.23 ± 0.075	1.55 ± 0.12	1.75 ± 0.12	2.06 ± 0.14	2.48 ± 0.13
SYNJ2 (UniProt O15056)	1.06 ± 0.11	1.02 ± 0.061	1.03 ± 0.047	1.02 ± 0.068	1.03 ± 0.043	0.993 ± 0.035	0.986 ± 0.088	0.931 ± 0.041
